In paper PMC11514447, “Eukaryotic initiation factor 4B is a multi-functional RNA binding protein that regulates histone mRNAs”:
These are yes or no findings as the source states them, for the method shown. Binding seen in cells or lysates may run through a third protein. Some results given as binding are weak or reduced against the parent protein; the word gives no strength.

Amino acid sequences for entries named in this document (tags omitted).
UniProt P23588: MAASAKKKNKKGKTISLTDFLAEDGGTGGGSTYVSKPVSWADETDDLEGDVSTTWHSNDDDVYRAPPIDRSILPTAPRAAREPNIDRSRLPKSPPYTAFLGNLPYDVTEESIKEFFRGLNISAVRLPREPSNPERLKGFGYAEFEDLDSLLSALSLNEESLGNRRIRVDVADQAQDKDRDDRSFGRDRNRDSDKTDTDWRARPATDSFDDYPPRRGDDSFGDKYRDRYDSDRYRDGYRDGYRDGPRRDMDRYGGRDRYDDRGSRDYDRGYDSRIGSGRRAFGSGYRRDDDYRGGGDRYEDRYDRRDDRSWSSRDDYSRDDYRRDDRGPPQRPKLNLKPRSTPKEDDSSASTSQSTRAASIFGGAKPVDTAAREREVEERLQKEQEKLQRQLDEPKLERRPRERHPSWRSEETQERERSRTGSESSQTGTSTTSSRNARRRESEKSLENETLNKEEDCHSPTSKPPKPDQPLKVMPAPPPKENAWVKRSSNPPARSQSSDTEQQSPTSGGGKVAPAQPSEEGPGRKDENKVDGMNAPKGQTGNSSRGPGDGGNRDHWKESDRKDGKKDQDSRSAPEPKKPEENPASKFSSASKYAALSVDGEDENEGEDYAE
UniProt P38919: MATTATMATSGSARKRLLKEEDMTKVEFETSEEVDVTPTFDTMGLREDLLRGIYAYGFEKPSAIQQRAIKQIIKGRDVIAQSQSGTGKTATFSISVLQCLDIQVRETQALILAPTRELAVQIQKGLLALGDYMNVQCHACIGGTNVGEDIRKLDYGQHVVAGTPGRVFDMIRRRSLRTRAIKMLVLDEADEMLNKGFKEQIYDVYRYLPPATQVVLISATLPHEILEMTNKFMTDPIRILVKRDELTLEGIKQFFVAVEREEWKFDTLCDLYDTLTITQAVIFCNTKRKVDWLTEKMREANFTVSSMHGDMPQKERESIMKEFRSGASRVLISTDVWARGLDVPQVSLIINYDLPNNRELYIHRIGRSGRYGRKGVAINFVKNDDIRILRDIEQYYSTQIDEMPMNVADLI
UniProt Q13283: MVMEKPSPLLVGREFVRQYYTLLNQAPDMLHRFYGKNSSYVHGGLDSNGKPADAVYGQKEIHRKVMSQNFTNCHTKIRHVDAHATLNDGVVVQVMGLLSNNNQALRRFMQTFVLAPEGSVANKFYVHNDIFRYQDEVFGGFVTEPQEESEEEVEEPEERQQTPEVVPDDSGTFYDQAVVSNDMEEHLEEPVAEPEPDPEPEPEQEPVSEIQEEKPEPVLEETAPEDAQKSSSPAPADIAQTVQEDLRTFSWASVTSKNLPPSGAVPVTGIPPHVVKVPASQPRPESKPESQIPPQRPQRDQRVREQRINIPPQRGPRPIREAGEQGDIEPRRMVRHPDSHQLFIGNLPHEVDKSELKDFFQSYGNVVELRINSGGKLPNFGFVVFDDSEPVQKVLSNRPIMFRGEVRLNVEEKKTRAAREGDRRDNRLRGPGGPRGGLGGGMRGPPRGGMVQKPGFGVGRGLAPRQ
UniProt P60842: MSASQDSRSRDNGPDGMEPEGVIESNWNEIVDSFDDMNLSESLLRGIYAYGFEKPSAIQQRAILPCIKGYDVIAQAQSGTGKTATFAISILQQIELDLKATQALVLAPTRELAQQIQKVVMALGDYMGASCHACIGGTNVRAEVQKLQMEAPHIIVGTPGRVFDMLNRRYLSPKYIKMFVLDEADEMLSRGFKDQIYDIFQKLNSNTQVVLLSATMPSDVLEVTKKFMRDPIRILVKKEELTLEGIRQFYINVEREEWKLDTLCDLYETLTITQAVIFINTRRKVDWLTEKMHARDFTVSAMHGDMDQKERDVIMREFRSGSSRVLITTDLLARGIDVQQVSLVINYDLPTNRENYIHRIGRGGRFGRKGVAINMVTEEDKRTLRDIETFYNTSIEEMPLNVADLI
UniProt Q14240: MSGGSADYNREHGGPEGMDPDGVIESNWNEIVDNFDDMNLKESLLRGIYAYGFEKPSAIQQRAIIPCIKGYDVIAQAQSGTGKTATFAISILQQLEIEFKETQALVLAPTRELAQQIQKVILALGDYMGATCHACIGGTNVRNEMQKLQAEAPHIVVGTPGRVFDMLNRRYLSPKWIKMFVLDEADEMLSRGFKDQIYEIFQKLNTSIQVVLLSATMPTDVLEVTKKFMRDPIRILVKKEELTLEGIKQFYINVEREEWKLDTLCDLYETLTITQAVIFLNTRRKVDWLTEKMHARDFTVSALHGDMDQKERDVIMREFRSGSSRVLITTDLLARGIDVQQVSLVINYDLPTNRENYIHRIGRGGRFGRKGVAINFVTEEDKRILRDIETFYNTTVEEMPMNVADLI

B1: UPF1 (up-frameshift protein 1) (protein, UniProt Q92900 1-1129)
chain: MSVEAYGPSSQTLTFLDTEEAELLGADTQGSEFEFTDFTLPSQTQTPPGGPGGPGGGGAGGPGGAGAGAAAGQLDAQVGPEGILQNGAVDDSVAKTSQLLAELNFEEDEEDTYYTKDLPIHACSYCGIHDPACVVYCNTSKKWFCNGRGNTSGSHIVNHLVRAKCKEVTLHKDGPLGETVLECYNCGCRNVFLLGFIPAKADSVVVLLCRQPCASQSSLKDINWDSSQWQPLIQDRCFLSWLVKIPSEQEQLRARQITAQQINKLEELWKENPSATLEDLEKPGVDEEPQHVLLRYEDAYQYQNIFGPLVKLEADYDKKLKESQTQDNITVRWDLGLNKKRIAYFTLPKTDSGNEDLVIIWLRDMRLMQGDEICLRYKGDLAPLWKGIGHVIKVPDNYGDEIAIELRSSVGAPVEVTHNFQVDFVWKSTSFDRMQSALKTFAVDETSVSGYIYHKLLGHEVEDVIIKCQLPKRFTAQGLPDLNHSQVYAVKTVLQRPLSLIQGPPGTGKTVTSATIVYHLARQGNGPVLVCAPSNIAVDQLTEKIHQTGLKVVRLCAKSREAIDSPVSFLALHNQIRNMDSMPELQKLQQLKDETGELSSADEKRYRALKRTAERELLMNADVICCTCVGAGDPRLAKMQFRSILIDESTQATEPECMVPVVLGAKQLILVGDHCQLGPVVMCKKAAKAGLSQSLFERLVVLGIRPIRLQVQYRMHPALSAFPSNIFYEGSLQNGVTAADRVKKGFDFQWPQPDKPMFFYVTQGQEEIASSGTSYLNRTEAANVEKITTKLLKAGAKPDQIGIITPYEGQRSYLVQYMQFSGSLHTKLYQEVEIASVDAFQGREKDFIILSCVRANEHQGIGFLNDPRRLNVALTRARYGVIIVGNPKALSKQPLWNHLLNYYKEQKVLVEGPLNNLRESLMQFSKPRKLVNTINPGARFMTTAMYDAREAIIPGSVYDRSSQGRPSSMYFQTHDQIGMISAGPSHVAAMNIPIPFNLVMPPMPPPGYFGQANGPAAGRGTPKGKTGRGGRQKNRFGLPGPSQTNLPNSQASQDVASQPFSQGALTQGYISMSQPSQMSQPGLSQPELSQDSYLGDEFKSQIDVALSQDSTYQGERAYQHGGVTGLSQY

Biological target: eukaryotic initiation factor 4B (human (endogenous in DoHH-2 and GM01953)) (UniProt P23588)
Experiment: co-IP; eIF4B antibody (or rabbit IgG) coupled to Dynabeads; DoHH-2 and GM01953 cell lysates; RNA digested with RNase T1; immunoblotting

Molecule	binding
eIF4A3 (from UniProt P38919 1-411)	binds
G3BP1 (from UniProt Q13283 1-466)	binds
eIF4A1 (from UniProt P60842 1-406)	binds
eIF4A2 (from UniProt Q14240 1-407)	binds
B1	binds
